# In all, about 2,100 compounds went through this assay and about 180 (8.6%) showed an effect of 50% or more. This is one part of the list.
# Tested on: MOLM1 and UCSD/AML1 (averaged)
# Assay: cell viability relative to DMSO control (POC); higher = less growth inhibition
# Conditions: 1 µM; 72 h
# Protocol: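 Primary viability screen in the 3q26 EVI1-high AML cell lines MOLM1 and UCSD/AML1 (1.5e3 cells/well, 384-well), compounds at 1 uM for 72 h. ATP CellTiter-Glo read-out given as percent of viable cells over DMSO control (POC), averaged over duplicates. DMSO was the negative control and 5 uM etoposide the positive control. This mapping covers the MicroSource Spectrum and Selleck anticancer libraries (drug names).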
row,SMILES,cell viability [%]
1,CC[C@H]1OC(=O)C[C@@H](O)[C@H](C)[C@@H](O[C@@H]2O[C@H](C)[C@@H](O[C@H]3C[C@@](C)(O)[C@@H](O)[C@H](C)O3)[C@H](N(C)C)[C@H]2O)[C@@H](CC=O)C[C@@H](C)C(=O)/C=C/C(C)=C/[C@@H]1CO[C@@H]1O[C@H](C)[C@@H](O)[C@@H](OC)[C@H]1OC,96.4
2,COc1ccc(S(=O)(=O)Nc2cccnc2Nc2ccc(O)cc2)cc1,49.4
3,CC1(C)O[C@@H]2C[C@H]3[C@@H]4CCC5=CC(=O)C=C[C@]5(C)[C@H]4[C@@H](O)C[C@]3(C)[C@]2(C(=O)CO)O1,65.4
4,O=C(O)c1ccc2c(c1)nc(Nc1cccc(Cl)c1)c1ccncc12 [cx-4945 (Silmitasertib)],80.5
5,O=C(O)Cc1cc(I)c(Oc2cc(I)c(O)c(I)c2)c(I)c1,97.8
6,CCN(CC)CCOc1ccc2c(c1)C(=O)c1cc(OCCN(CC)CC)ccc1-2,88.6
7,C=C[C@@]1(C)CC(=O)[C@]2(O)[C@@]3(C)[C@@H](O)CCC(C)(C)[C@@H]3[C@H](O)[C@H](OC(C)=O)[C@@]2(C)O1,98.2
8,CN(Cc1cnc2nc(N)nc(N)c2n1)c1ccc(C(=O)NC(CCC(=O)O)C(=O)O)cc1 (racemic),94.3
9,CCN(CC)C(=S)SSC(=S)N(CC)CC,5.82
10,CCN(CC)C(=S)SSC(=S)N(CC)CC [Disulfiram (Antabuse)],1.33
11,COc1cc2/c(=N/c3ccc(Br)cc3F)nc[nH]c2cc1OCC1CCN(C)CC1 [Vandetanib (Zactima)],51
12,O=c1cc(-c2ccccc2)oc2cc(O)cc(O)c12,83.4
13,Cc1c(C(=O)O)c(O)cc2c1C(=O)c1c(O)c([C@@H]3O[C@H](CO)[C@@H](O)[C@H](O)[C@H]3O)c(O)c(O)c1C2=O,92.5
14,O=C1CN(/N=C/c2ccc([N+](=O)[O-])o2)C(=O)N1,97.4
15,c1ccc2c(c1)CN1CCCC1=N2,85.3
16,Cc1ccccc1OCC(O)CO (centres undefined),97.9
17,C[C@H](N)[C@H](O)c1cccc(O)c1,107
18,CC1(C)S[C@@H]2[C@H](NC(=O)C(C(=O)O)c3ccccc3)C(=O)N2[C@H]1C(=O)O (some centres undefined),116
19,CCN(CC)CCOC(=O)C(Cc1cccc2ccccc12)CC1CCCO1 (centres undefined),103
20,C=C[C@@H](C1=CC(=O)C(OC)=C(OC)C1=O)c1ccccc1,8.05

# Quoted from the listing (three entries):
row,SMILES,cell viability [%]
2,COc1ccc(S(=O)(=O)Nc2cccnc2Nc2ccc(O)cc2)cc1,49.4
3,CC1(C)O[C@@H]2C[C@H]3[C@@H]4CCC5=CC(=O)C=C[C@]5(C)[C@H]4[C@@H](O)C[C@]3(C)[C@]2(C(=O)CO)O1,65.4
4,O=C(O)c1ccc2c(c1)nc(Nc1cccc(Cl)c1)c1ccncc12 [cx-4945 (Silmitasertib)],80.5

# Next entries follow.

row,SMILES,cell viability [%]
1,O=C1CN(/N=C/c2ccc(-c3ccc([N+](=O)[O-])cc3)o2)C(=O)N1,102
2,COc1cc(O)c2c(c1)C(=O)c1cc(C)cc(O)c1C2=O,94.9
3,CCOC(=O)n1ccn(C)c1=S,109
4,CC1(C)S[C@@H]2[C@H](NC(=O)[C@H](C(=O)O)c3ccsc3)C(=O)N2[C@H]1C(=O)O,112
5,CN[C@@H]1[C@@H](O)[C@@H](O[C@@H]2[C@@H](O)[C@H](O[C@H]3OC(CN)=CC[C@H]3N)[C@@H](N)C[C@H]2N)OC[C@]1(C)O,105
6,Cc1cc(NS(=O)(=O)c2ccc(N)cc2)no1,101
7,NCCCC(O)(P(=O)(O)O)P(=O)(O)O,90.4
8,CNC[C@H](O)[C@@H](O)[C@H](O)[C@H](O)CO,103
9,Nc1ccc(S(=O)(=O)Nc2cnc3ccccc3n2)cc1,97.1
10,COC(=O)Nc1ccc(-c2nc(N3CCOCC3)c3cnn(C4CCN(C(=O)OC)CC4)c3n2)cc1,25.9
11,CCCCC/C=C/CCC(=O)N[C@H]1[C@H](Oc2c3cc4cc2Oc2ccc(cc2Cl)[C@@H](O[C@@H]2O[C@H](CO)[C@@H](O)[C@H](O)[C@H]2NC(C)=O)[C@@H]2NC(=O)[C@H](NC(=O)[C@@H]4NC(=O)[C@H]4NC(=O)C(Cc5ccc(c(Cl)c5)O3)NC(=O)[C@H](N)c3ccc(O)c(c3)Oc3cc(O)cc4c3)c3ccc(O)c(c3)-c3c(OC4O[C@H](CO)[C@@H](O)[C@H](O)[C@@H]4O)cc(O)cc3[C@@H](C(=O)O)NC2=O)O[C@H](CO)[C@@H](O)[C@@H]1O (some centres undefined) [TEICOPLANIN [A(2-1) shown]],101
12,O=c1c(O)c(-c2ccccc2)oc2cccc(O)c12,93.1
13,Cc1ccnc(NS(=O)(=O)c2ccc(N)cc2)n1,98.5
14,NC(=O)OCC(COC(N)=O)c1ccccc1,89.9
15,CC(C)n1c(/C=C/C(O)CC(O)CC(=O)O)c(-c2ccc(F)cc2)c2ccccc21 (centres undefined) [Fluvastatin sodium (Lescol)],64.2
16,CCCCNc1cc(C(=O)O)cc(S(N)(=O)=O)c1Oc1ccccc1,100
17,CC(=O)Oc1ccccc1C(=O)Oc1ccccc1C(=O)O,114
18,CCN(CC)CCOC(=O)c1ccc(N)cc1,99.1
19,CC[C@H](C)C(=O)O[C@H]1C[C@@H](C)C=C2C=C[C@H](C)[C@H](CC[C@@H]3C[C@@H](O)CC(=O)O3)[C@H]21,86.5

# Reference: the supplement of paper PMC11150407
